Measured values taken from patent publication US20090124537A1.
No constants are given. Whether binding was seen depends on the method and setting. Some entries that bind do so weakly or less than the wild type. Where a sequence is shown, tags or fusion partners need not be part of it.

Amino acid sequences for entries named in this document (tags omitted). Residues count along the entry.
UniProt P18075, residues 293-431: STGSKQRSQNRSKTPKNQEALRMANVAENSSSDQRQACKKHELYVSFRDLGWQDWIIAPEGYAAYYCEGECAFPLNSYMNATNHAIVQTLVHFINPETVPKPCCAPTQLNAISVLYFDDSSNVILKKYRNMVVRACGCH

Target: T1, extracellular domain (ECD) of the type II receptor daf-4, hexa-histidine tagged (C. elegans)
T1 sequence (chain, heavily glycosylated): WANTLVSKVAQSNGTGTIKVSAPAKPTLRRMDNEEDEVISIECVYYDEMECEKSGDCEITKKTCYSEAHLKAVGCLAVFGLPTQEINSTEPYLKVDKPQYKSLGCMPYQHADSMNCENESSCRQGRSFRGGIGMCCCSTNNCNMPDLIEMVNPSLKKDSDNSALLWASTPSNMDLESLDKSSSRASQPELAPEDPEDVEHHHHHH
Assay: ligand blot with 125I-BMP-7 on purified daf-4 ECD; inhibited by excess unlabeled BMP-7

binding: binds
Substance: bone morphogenetic protein-7 (from UniProt P18075 293-431) (ligand)
